These results are taken from publication doi:10.1101/2022.12.25.521893 (bioRxiv, 2022).

These are yes or no findings as the source states them, for the method shown. Binding calls can cover weak binding; strength is not graded here.

This experiment concerns the target LptDE complex from Pseudomonas aeruginosa with a hexahistidine tag on LptE (Pseudomonas aeruginosa). In words: native MS.

B1: endogenous E. coli lipoprotein YbjP (protein, UniProt P75818 19-171)
chain: CTTVTPAYKDNGTRSGPCVEGGPDNVAQQFYDYRILHRSNDITALRPYLSDKLATLLSDASRDNNHRELLTNDPFSSRTTLPDSAHVASASTIPNRDARNIPLRVDLKQGDQGWQDEVLMIQEGQCWVIDDVRYLGGSVHATAGTLRQSIENR
As to B1, the binding entry is given as “binds”.
